# US10487093B2, “Heterocyclic compounds, in particular 2-oxo-4,4,5,5,6,6,7,7-octahydrobenzoxazole derivatives, and their use as antibacterial compounds” (priority 2016, dated 2019)
# Some entries share one result that the patent states for a list of compounds.
# Tested on: E. coli MG1655 fluoroquinolone-mutant strains
# Type: cell-based, Escherichia coli
# Details: MG1655 S83L and MG1655 D87G versus parent MG1655; no significant loss
row,SMILES,loss of activity (fold change) against the E. coli MG1655 fluoroquinolone-mutant strains [fold]
1,"O=C1COc2ccc(N3C(=O)O[C@@H]4C[C@@H](NCCn5c(=O)ccc6ncc(F)cc65)CC[C@@H]43)nc2N1 [Compound 28, 1-(2-{[(3aS,6S,7aR)-2-oxo-3-{3-oxo-2H,3H,4H-pyrido[3,2-b][1,4]oxazin-6-yl}-octahydro-1,3-benzoxazol-6-yl]amino}ethyl)-7-fluoro-1,2-dihydro-1,5-naphthyridin-2-one]",≤ 2
2,"O=C1COc2cnc(N3C(=O)O[C@H]4C[C@@H](NCCn5c(=O)cnc6cc(F)c(F)cc65)CC[C@@H]43)nc2N1 [Compound 66, 1-(2-{[(3aS,6S,7aS)-2-oxo-3-{7-oxo-6H,7H,8H-pyrimido[5,4-b][1,4]oxazin-2-yl}-octahydro-1,3-benzoxazol-6-yl]amino}ethyl)-6,7-difluoro-1,2-dihydroquinoxalin-2-one]",≤ 2
3,"O=C1COc2ccc(N3C(=O)O[C@@H]4C[C@@H](NCCn5c(=O)ccc6ccc(OCCO)nc65)CC[C@@H]43)nc2N1 [Compound 6, 1-(2-{[(3aS,6S,7aR)-2-oxo-3-{3-oxo-2H,3H,4H-pyrido[3,2-b][1,4]oxazin-6-yl}-octahydro-1,3-benzoxazol-6-yl]amino}ethyl)-7-(2-hydroxyethoxy)-1,2-dihydro-1,8-naphthyridin-2-one]",≤ 2
4,"O=C1COc2ccc(N3C(=O)O[C@H]4C[C@@H](NCCn5c(=O)ccc6ncc(OC(F)F)cc65)CC[C@@H]43)nc2N1 [Compound 98, 1-(2-{[(3aS,6S,7aS)-2-oxo-3-{3-oxo-2H,3H,4H-pyrido[3,2-b][1,4]oxazin-6-yl}-octahydro-1,3-benzoxazol-6-yl]amino}ethyl)-7-(difluoromethoxy)-1,2-dihydro-1,5-naphthyridin-2-one]",≤ 2
5,"N#Cc1ccc2ccc(=O)n(CCN(CCN)[C@@H]3CC[C@@H]4[C@@H](C3)OC(=O)N4c3ccc4c(n3)NC(=O)CO4)c2c1 [Compound 19, 1-(2-{[(3aR,6R,7aR)-2-oxo-3-{3-oxo-2H,3H,4H-pyrido[3,2-b][1,4]oxazin-6-yl}-octahydro-1,3-benzoxazol-6-yl](2-aminoethyl)amino}ethyl)-2-oxo-1,2-dihydroquinoline-7-carbonitrile]",≤ 2
6,"N#Cc1ccc2ccc(=O)n(CCCN[C@@H]3CC[C@@H]4[C@@H](C3)OC(=O)N4c3ccc4c(n3)NC(=O)CO4)c2c1 [Compound 74, 1-(3-{[(3aR,6R,7aR)-2-oxo-3-{3-oxo-2H,3H,4H-pyrido[3,2-b][1,4]oxazin-6-yl}-octahydro-1,3-benzoxazol-6-yl]amino}propyl)-2-oxo-1,2-dihydroquinoline-7-carbonitrile]",≤ 2
7,"COc1cnc2ccc(=O)n(CCN(C)[C@H]3CC[C@H]4[C@@H](C3)OC(=O)N4c3ccc4c(n3)NC(=O)CO4)c2c1 [Compound 51, 1-(2-{[(3aS,6S,7aR)-2-oxo-3-{3-oxo-2H,3H,4H-pyrido[3,2-b][1,4]oxazin-6-yl}-octahydro-1,3-benzoxazol-6-yl](methyl)amino}ethyl)-7-methoxy-1,2-dihydro-1,5-naphthyridin-2-one]",≤ 2
8,"COc1ccc2ccc(=O)n(CCN[C@H]3CC[C@H]4[C@@H](C3)OC(=O)N4c3ccc4c(n3)NC(=O)CO4)c2n1 [Compound 4, 1-(2-{[(3aS,6S,7aR)-2-oxo-3-{3-oxo-2H,3H,4H-pyrido[3,2-b][1,4]oxazin-6-yl}-octahydro-1,3-benzoxazol-6-yl]amino}ethyl)-7-methoxy-1,2-dihydro-1,8-naphthyridin-2-one]",≤ 2
9,"N#Cc1cnc2ccc(=O)n(CCN[C@@H]3CC[C@@H]4[C@@H](C3)OC(=O)N4c3ccc4c(n3)NC(=O)CO4)c2c1 [Compound 50, 5-(2-{[(3aR,6R,7aR)-2-oxo-3-{3-oxo-2H,3H,4H-pyrido[3,2-b][1,4]oxazin-6-yl}-octahydro-1,3-benzoxazol-6-yl]amino}ethyl)-6-oxo-5,6-dihydro-1,5-naphthyridine-3-carbonitrile]",≤ 2
10,"COc1ncc2ccc(=O)n(CCN[C@H]3CC[C@H]4[C@H](C3)OC(=O)N4c3ccc4c(n3)NC(=O)CO4)c2n1 [Compound 52, (3aS,6S,7aS)-6-[(2-{2-methoxy-7-oxo-7H,8H-pyrido[2,3-d]pyrimidin-8-yl}ethyl)amino]-3-{3-oxo-2H,3H,4H-pyrido[3,2-b][1,4]oxazin-6-yl}-octahydro-1,3-benzoxazol-2-one]",≤ 2
11,"COc1ccc2ccc(=O)n(CCCN[C@@H]3CC[C@@H]4[C@@H](C3)OC(=O)N4c3ccc4c(n3)NC(=O)CO4)c2n1 [Compound 76, 1-(3-{[(3aR,6R,7aR)-2-oxo-3-{3-oxo-2H,3H,4H-pyrido[3,2-b][1,4]oxazin-6-yl}-octahydro-1,3-benzoxazol-6-yl]amino}propyl)-7-methoxy-1,2-dihydro-1,8-naphthyridin-2-one]",≤ 2
12,"O=C1COc2ccc(N3C(=O)O[C@@H]4C[C@@H](NCCn5c(=O)cnc6cc(F)c(F)cc65)CC[C@@H]43)nc2N1 [Compound 22, 1-(2-{[(3aS,6S,7aR)-2-oxo-3-{3-oxo-2H,3H,4H-pyrido[3,2-b][1,4]oxazin-6-yl}-octahydro-1,3-benzoxazol-6-yl]amino}ethyl)-6,7-difluoro-1,2-dihydroquinoxalin-2-one]",≤ 2
13,"NCCCOc1ccc2ccc(=O)n(CCN[C@@H]3CC[C@@H]4[C@@H](C3)OC(=O)N4c3ccc4c(n3)NC(=O)CO4)c2c1 [Compound 3, 1-(2-{[(3aR,6R,7aR)-2-oxo-3-{3-oxo-2H,3H,4H-pyrido[3,2-b][1,4]oxazin-6-yl}-octahydro-1,3-benzoxazol-6-yl]amino}ethyl)-7-(3-aminopropoxy)-1,2-dihydroquinolin-2-one]",≤ 2
14,"O=C1COc2ccc(N3C(=O)O[C@@H]4C[C@H](NCCCn5c(=O)cnc6cc(F)c(F)cc65)CC[C@H]43)nc2N1 [Compound 88, 1-(3-{[(3aR,6R,7aR)-2-oxo-3-{3-oxo-2H,3H,4H-pyrido[3,2-b][1,4]oxazin-6-yl}-octahydro-1,3-benzoxazol-6-yl]amino}propyl)-6,7-difluoro-1,2-dihydroquinoxalin-2-one]",≤ 2
15,"O=C1COc2ccc(N3C(=O)O[C@@H]4C[C@@H](NCCn5c(=O)ccc6ccc(Oc7cccnc7)nc65)CC[C@@H]43)nc2N1 [Compound 12, 1-(2-{[(3aS,6S,7aR)-2-oxo-3-{3-oxo-2H,3H,4H-pyrido[3,2-b][1,4]oxazin-6-yl}-octahydro-1,3-benzoxazol-6-yl]amino}ethyl)-7-(pyridin-3-yloxy)-1,2-dihydro-1,8-naphthyridin-2-one]",≤ 2
16,"N#Cc1cccc(-c2cccc(CN[C@H]3CC[C@H]4[C@H](C3)OC(=O)N4c3ccc4c(n3)NC(=O)CO4)n2)c1 [Compound 105, 3-[6-({[(3aS,6S,7aS)-2-oxo-3-{3-oxo-2H,3H,4H-pyrido[3,2-b][1,4]oxazin-6-yl}-octahydro-1,3-benzoxazol-6-yl]amino}methyl)pyridin-2-yl]benzonitrile]",≤ 2
17,"N#Cc1ccc2ccc(=O)n(CCN[C@@H]3CC[C@@H]4[C@@H](C3)OC(=O)N4c3ccc4c(n3)NC(=O)CO4)c2c1 [Compound 59, 1-(2-{[(3aR,6R,7aR)-2-oxo-3-{3-oxo-2H,3H,4H-pyrido[3,2-b][1,4]oxazin-6-yl}-octahydro-1,3-benzoxazol-6-yl]amino}ethyl)-2-oxo-1,2-dihydroquinoline-7-carbonitrile]",≤ 2
18,"COc1ccc2c3conc3c(=O)n(CCN[C@H]3CC[C@H]4[C@@H](C3)OC(=O)N4c3ccc4c(n3)NC(=O)CO4)c2c1 [Compound 11, (3aS,6S,7aR)-6-[(2-{7-methoxy-4-oxo-4H,5H-[1,2]oxazolo[3,4-c]quinolin-5-yl}ethyl)amino]-3-{3-oxo-2H,3H,4H-pyrido[3,2-b][1,4]oxazin-6-yl}-octahydro-1,3-benzoxazol-2-one]",≤ 2
19,"COc1ncc2ccc(=O)n(CCN[C@@H]3CC[C@@H]4[C@@H](C3)OC(=O)N4c3ccc4c(n3)NC(=O)CO4)c2n1 [Compound 2, (3aR,6R,7aR)-6-[(2-{2-methoxy-7-oxo-7H,8H-pyrido[2,3-d]pyrimidin-8-yl}ethyl)amino]-3-(3-oxo-2H,3H,4H-pyrido[3,2-b][1,4]oxazin-6-yl}-octahydro-1,3-benzoxazol-2-one]",≤ 2
20,"N#Cc1ccc2ncc(=O)n(CCN[C@H]3CC[C@H]4[C@@H](C3)OC(=O)N4c3ccc4c(n3)NC(=O)CO4)c2c1 [Compound 31, 4-(2-{[(3aS,6S,7aR)-2-oxo-3-{3-oxo-2H,3H,4H-pyrido[3,2-b][1,4]oxazin-6-yl}-octahydro-1,3-benzoxazol-6-yl]amino}ethyl)-3-oxo-3,4-dihydroquinoxaline-6-carbonitrile]",≤ 2
21,"O=C1COc2cnc(N3C(=O)O[C@@H]4C[C@H](NCCn5c(=O)cnc6cc(F)c(F)cc65)CC[C@H]43)nc2N1 [Compound 38, 1-(2-{[(3aR,6R,7aR)-2-oxo-3-{7-oxo-6H,7H,8H-pyrimido[5,4-b][1,4]oxazin-2-yl}-octahydro-1,3-benzoxazol-6-yl]amino}ethyl)-6,7-difluoro-1,2-dihydroquinoxalin-2-one]",≤ 2
22,"CN(CCn1c(=O)ccc2ccc(C#N)cc21)[C@H]1CC[C@H]2[C@@H](C1)OC(=O)N2c1ccc2c(n1)NC(=O)CO2 [Compound 47, 1-(2-{[(3aS,6S,7aR)-2-oxo-3-{3-oxo-2H,3H,4H-pyrido[3,2-b][1,4]oxazin-6-yl}-octahydro-1,3-benzoxazol-6-yl](methyl)amino}ethyl)-2-oxo-1,2-dihydroquinoline-7-carbonitrile]",≤ 2
